Laboratory results reported in publication PMC10878142.
Results are given in words; binding and its absence hold for the method and conditions named. Binding seen in cells or lysates may run through a third protein. Some entries that bind do so weakly or less than the wild type.

Chains of the proteins cited; added tags and fusions are not shown. Lines headed by an entry give the natural chain unless they say otherwise; changes in a name come on top. A line that says so, or that is headed by a name, gives the form on record, which may keep a tag or linker.
UniProt P40763: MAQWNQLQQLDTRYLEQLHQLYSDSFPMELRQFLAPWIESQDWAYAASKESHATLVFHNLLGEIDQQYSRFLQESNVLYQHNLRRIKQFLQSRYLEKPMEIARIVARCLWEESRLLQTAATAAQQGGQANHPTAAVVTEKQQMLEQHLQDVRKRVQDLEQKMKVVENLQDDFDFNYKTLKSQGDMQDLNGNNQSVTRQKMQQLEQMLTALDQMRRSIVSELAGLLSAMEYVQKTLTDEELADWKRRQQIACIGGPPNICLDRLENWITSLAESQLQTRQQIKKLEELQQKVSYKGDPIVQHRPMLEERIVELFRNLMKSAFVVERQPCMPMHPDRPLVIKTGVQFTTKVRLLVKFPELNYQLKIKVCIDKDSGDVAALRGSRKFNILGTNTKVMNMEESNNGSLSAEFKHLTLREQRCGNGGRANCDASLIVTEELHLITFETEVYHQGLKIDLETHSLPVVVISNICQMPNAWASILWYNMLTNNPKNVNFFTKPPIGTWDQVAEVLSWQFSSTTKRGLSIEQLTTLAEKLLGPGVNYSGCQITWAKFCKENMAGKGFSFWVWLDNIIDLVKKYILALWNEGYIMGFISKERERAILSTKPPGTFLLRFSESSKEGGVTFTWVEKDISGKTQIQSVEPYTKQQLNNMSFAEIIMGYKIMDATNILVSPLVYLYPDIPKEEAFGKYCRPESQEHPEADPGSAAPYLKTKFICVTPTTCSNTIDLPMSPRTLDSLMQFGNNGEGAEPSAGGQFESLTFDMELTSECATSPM
standard CD44 (CD44s) (P16070-12, form named): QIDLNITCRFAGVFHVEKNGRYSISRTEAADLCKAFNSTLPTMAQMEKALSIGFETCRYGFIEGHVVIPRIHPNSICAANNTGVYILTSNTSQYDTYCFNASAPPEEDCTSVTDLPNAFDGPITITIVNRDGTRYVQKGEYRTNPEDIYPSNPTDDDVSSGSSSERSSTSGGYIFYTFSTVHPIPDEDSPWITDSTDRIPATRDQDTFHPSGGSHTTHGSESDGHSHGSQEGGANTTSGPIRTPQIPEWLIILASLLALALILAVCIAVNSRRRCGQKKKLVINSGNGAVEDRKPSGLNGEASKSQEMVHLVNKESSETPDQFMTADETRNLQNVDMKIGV

Target: STAT3 (human (endogenous in NCI-N87 / SGC-7901)) (UniProt P40763)
Assay: co-IP; Pierce Co-IP kit, antibody covalently coupled to amine-reactive resin; endogenous CD44s or STAT3 immunoprecipitated with anti-STAT3 or anti-CD44s antibody, Western blot with both antibodies; high TGF-β1 environment

binding: binds
Substance: standard CD44 (CD44s) (from UniProt P16070-12 21-361)
